The values that follow come from EP4335452A1 (L-Base Co., Ltd., priority 2021, dated 2024).

For some of these results: Some peptides are written in HELM: one residue between dots, names in brackets for other building blocks, links after the first $.

Data set [1] in a line: peptide made by a vendor (solution-phase peptide synthesis; HATU / N,N-Diisopropylethylamine).
The nature of data set [2]: general procedure: solution-phase peptide synthesis; HATU / N,N-Diisopropylethylamine. The following applies: coupling step.

As to Ph-AQTGTGKT, in data set [1] (late stage modification step), the “final purity (method not given)” value is “over 90%” and the step yield was 33%.

“4-OMePh-AlaGlnThr(OBn)GlyThr(OBn)GlyLys(Cbz)Thr(OBn)OBn” came in with a step yield in data set [1] (coupling step) of 50%.

In data set [2], “BocThr(OBn)GlyThr(OBn)GlyLys(Cbz)Thr(OBn)OBn” returned a step yield greater than 100%.

Substance “3-PhPh-AlaGlnThr(OBn)GlyThr(OBn)GlyLys(Cbz)Thr(OBn)OBn” displayed a step yield in data set [1] (coupling step) of 38%.

As for 2-PhPh-AQTGTGKT, in data set [1] (late stage modification step), the “final purity (method not given)” value is “over 95%” and the step yield is given as 31%.

As to “2-Naphthyl-AlaGlnThr(OBn)GlyThr(OBn)GlyLys(Cbz)Thr(OBn)OBn”, the step yield in data set [1] (coupling step) came to 64%.

On to “GlnThr(OBn)GlyThr(OBn)GlyLys(Cbz)Thr(OBn)OBn”, for which, in data set [1] (late stage modification step), the step yield was found to be 96%.

For BocThr(OBn)GlyLys(Cbz)Thr(OBn)OBn, the values for the step yield in data set [2] and in data set [1] (late stage modification step) were greater than 100% and 88%, respectively.

In data set [1] (coupling step, total yield), “BocGlnThr(OBn)GlyThr(OBn)GlyLys(Cbz)Thr(OBn) OBn” came in with a step yield of 89%.

As to “PEPTIDE1{[4MeOPh].A.Q.T.G.T.G.K.T}$$$$V2.0”, in data set [1] (late stage modification step), the “final purity (method not given)” value was determined as 89% and the step yield stood at 10%.

Regarding Naphthyl-AQTGTGKT, in data set [1] (late stage modification step), the “final purity (method not given)” value amounted to 85% and the step yield is 33%.

The substance “Ph-AlaGlnThr(OBn)GlyThr(OBn)GlyLys(Cbz)Thr(OBn)OBn” showed a step yield in data set [1] (coupling step) of 58%.

Consider “2-PhPh-AlaGlnThr(OBn)GlyThr(OBn)GlyLys(Cbz)Thr(OBn)OBn”, for which, in data set [1] (coupling step), the step yield was found to be 49%.

As to PEPTIDE1{[ac].A.Q.T.G.T.G.K.T}$$$$V2.0, in data set [1] (late stage modification step), the step yield is 37%.

As for “PEPTIDE1{[3PhPh].A.Q.T.G.T.G.K.T}$$$$V2.0”, in data set [1] (late stage modification step), the “final purity (method not given)” value is “over 90%” and the step yield worked out at 5%.

In data set [1] (coupling step), “Ac-AlaGlnThr(OBn)GlyThr(OBn)GlyLys(Cbz)Thr(OBn)OBn” registered a step yield of 33%.
